Consider one molecule from paper PMC12141670.

By UniProt entry, the sequences of proteins in these tests, tags left out. Where a name states a change or a piece, a line headed by the entry shows the natural chain unless it says otherwise.
UniProt Q95X71: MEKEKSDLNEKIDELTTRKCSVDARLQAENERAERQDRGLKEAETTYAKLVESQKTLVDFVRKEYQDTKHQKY

Results are given in words; binding and its absence hold for the method and conditions named. Binding calls can cover weak binding; strength is not graded here.

In this assay the target is SSNA-1 (C. elegans ortholog of Sjogren's Syndrome Nuclear Antigen 1) (C. elegans) (UniProt Q95X71). Description: co-sedimentation; purified proteins incubated alone or together for 10 min at room temperature; 1.25 μM ZYG-1 or BSA, 10 μM SSNA-1 filaments or GMPCPP microtubules; 30 μL; 80,000 rpm (278,088 × g), TLA-120.2, 10 min, 25 °C; supernatant and pellet by SDS-PAGE and immunoblot; SSNA-1 in 50 mM phosphate pH 7.5, 150 mM NaCl, 10% glycerol, 1 mM DTT; both purified. In general terms: In western blotting, separated proteins are transferred to a membrane and probed.

B1: ZYG-1 (enzyme, UniProt Q9GT24 1-706)
chain: MSGGKSGSRLSAYSHLKEIGKGGFGVVYAAQRENGEKVAIKRIDKKVPKNRVWTEIQTMKELKKSKYVVEFYEDFVEDGYTYIVMELCEGGSLQAYVREHGALDDATAVHVLRQLISAVSFMHRVNVIHRDLSAGNVFIKDSKKKKMTVKLGDFGLATTLGRGETTCTIVGTPGFIAPQVYDQEYTQSADVYSLGAVLYTMLTARNPPPKGLPPTCGMSPNAARLVEQMMDTDAKKRIPLTQIVLSEFMYENTNENAVIFSREHSRDGRRQRSREPVRSSRDDRSRDGRALIRSSSQPAHSGRAPLSNRPIHDRMPSTSSRGFDSERGRERDRDSGRGTVPPSREDRNRSQLWPIRMDRLEGQRVCTAGGRYIVELDTRCRFEVAAQGNFVKRILIVEVDEMVQTVYVHRIPDRTVRGRNGEEELITLTNNPFVYTSYSQMPKEVQNDYMRLQKMVAVTISGRVAKVTFRRPSQFPDAQAQLMENGDLRIKLPRSVIVRKMDNGEIFNCIDGIATQKQAVSGITLTKVNEVYKYLIRFEQCLNGMDRGMVCFPIVFSAGTNMVGSSPSSLMPSGSSQTSRFPFSNLSNNQPSLVPHSAPFLTKPTSSQRASSANVQRRVSTDENSSPSVAPSKYKIKIDPTTQKVRSIQATDGRVLRCSTSKADQFIFTDPAIRPDDQRFMRTDRVPDRASEMLHTLCERMRKLHQ
For B1, the binding result is “binds”.
